Data published in the supplement of paper PMC4604168 (melanoma cell lines).
The other results are listed elsewhere or left out. Many values rest on one well or one pass, so single values are uncertain.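 Cells were imaged in 1,536-well plates, and nuclei stained with an antibody against cleaved PARP were counted against all DNA-stained nuclei to give the apoptosis fraction. Screening doses were chosen to leave most cells alive, and resting and induced cleaved-PARP levels differ strongly between cell lines.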

Assays:
Experiment in all cases: cleaved PARP positive nuclei fraction relative to DMSO control; melanoma cells; higher = more apoptosis
Settings in all cases: library dose: low library concentration; 72 h
501Mel = tested on: 501Mel
A101D = tested on: A101D
A2058 = tested on: A2058
A375 = tested on: A375
C32 = tested on: C32
CBRC008 = tested on: CBRC008 (line from a melanoma biopsy)
CBRC014 = tested on: CBRC014 (line from a melanoma biopsy)
CBRC016 = tested on: CBRC016 (line from a melanoma biopsy)
CBRC017 = tested on: CBRC017 (line from a melanoma biopsy)
CBRC034 = tested on: CBRC034 (line from a melanoma biopsy)
COLO792 = tested on: COLO792
COLO800 = tested on: COLO800
COLO829 = tested on: COLO829
G361 = tested on: G361
IPC-298 = tested on: IPC-298
IST-MEL1 = tested on: IST-MEL1
LB2518-MEL = tested on: LB2518-MEL
LOXIMVI = tested on: LOXIMVI
MEL-HO = tested on: MEL-HO

SMILES	cleaved PARP positive nuclei fraction (501Mel) [%]	cleaved PARP positive nuclei fraction (A101D) [%]	cleaved PARP positive nuclei fraction (A2058) [%]	cleaved PARP positive nuclei fraction (A375) [%]	cleaved PARP positive nuclei fraction (C32) [%]	cleaved PARP positive nuclei fraction (CBRC008) [%]	cleaved PARP positive nuclei fraction (CBRC014) [%]	cleaved PARP positive nuclei fraction (CBRC016) [%]	cleaved PARP positive nuclei fraction (CBRC017) [%]	cleaved PARP positive nuclei fraction (CBRC034) [%]	cleaved PARP positive nuclei fraction (COLO792) [%]	cleaved PARP positive nuclei fraction (COLO800) [%]	cleaved PARP positive nuclei fraction (COLO829) [%]	cleaved PARP positive nuclei fraction (G361) [%]	cleaved PARP positive nuclei fraction (IPC-298) [%]	cleaved PARP positive nuclei fraction (IST-MEL1) [%]	cleaved PARP positive nuclei fraction (LB2518-MEL) [%]	cleaved PARP positive nuclei fraction (LOXIMVI) [%]	cleaved PARP positive nuclei fraction (MEL-HO) [%]
NC(=O)c1ccc(N(C(N)=O)c2c(F)cccc2F)nc1-c1ccc(F)cc1F + O=C(O)c1ccc2c(c1)nc(Nc1cccc(Cl)c1)c1ccncc12 [CX4945] (first compound 0.4 µM, partner dose 0.4 µM)	136	119	258	201	194	55.3	139	77.7	152	276	59	95.5	241	86.3	52.1	102	50.3	139	132
C[C@]1(O)C[C@@H](c2nc(-c3ccc4ccc(-c5ccccc5)nc4c3)c3c(N)nccn32)C1 + COc1ccc(Cl)c(Nc2nc3ccccc3nc2NS(=O)(=O)c2cccc(NC(=O)C(C)(C)N)c2)c1 [XL147] (first compound 0.4 µM, partner dose 0.8 µM)	103	32.3	156	346	86.2	159	113	47.9	122	79.3	57.2	128	117	73.9	43.4	134	96.1	105	207
COc1ccc(C2=N[C@@H](c3ccc(Cl)cc3)[C@@H](c3ccc(Cl)cc3)N2C(=O)N2CCNC(=O)C2)c(OC(C)C)c1 [Nutlin-3] + CO[C@H]1C[C@@H]2CC[C@@H](C)[C@@](O)(O2)C(=O)C(=O)N2CCCC[C@H]2C(=O)O[C@H]([C@H](C)C[C@@H]2CC[C@@H](OCCO)[C@H](OC)C2)CC(=O)[C@H](C)/C=C(\C)[C@@H](O)[C@@H](OC)C(=O)[C@H](C)C[C@H](C)/C=C/C=C/C=C/1C [everolimus] (first compound 0.1 µM, partner dose 0.02 µM)	1010	111	57.5	542	86.3	87.9	94.5	106	217	98.4	83.8	88.9	46.3	95.5	119	128	147	244	273
C[C@]1(O)C[C@@H](c2nc(-c3ccc4ccc(-c5ccccc5)nc4c3)c3c(N)nccn32)C1 + O=C(O)c1ccc2c(c1)nc(Nc1cccc(Cl)c1)c1ccncc12 [CX4945] (first compound 0.4 µM, partner dose 0.4 µM)	96.3	131	150	982	71.1	136	157	34.4	161	67.2	85.1	194	40	89.1	273	108	429	53.8	64.1
CCN(CC)CCNC(=O)c1c(C)[nH]c(/C=C2\C(=O)Nc3ccc(F)cc32)c1C [sunitinib] + O=C(O)[C@@H]1[O][Sb](=[O])([O][Sb]2(=[O])[O][C@H]([C@H](O)CO)[C@H](O)[C@H](C(=O)O)[O]2)[O][C@H]([C@H](O)CO)[C@@H]1O [stibogluconate] (first compound 0.4 µM, partner dose 2 µM)	97	84.4	75.5	125	198	81.5	172	128	118	64.2	63.4	84.9	54.8	183	58.8	59.4	97.5	83.8	36.2
C[C@@H](N)c1ccc(C(=O)Nc2ccnc3[nH]ccc23)cc1 + Nc1cccc2c1CN(C1CCC(=O)NC1=O)C2=O [lenalidomide] (first compound 0.4 µM, partner dose 1 µM)	69.8	82.6	130	89	93.3	131	86.3	266	95.8	243	198	169	122	107	42.6	215	122	272	91
NC(=O)c1ccc(N(C(N)=O)c2c(F)cccc2F)nc1-c1ccc(F)cc1F + C=C(c1ccc(C(=O)O)cc1)c1cc2c(cc1C)C(C)(C)CCC2(C)C [Bexarotene] (first compound 0.4 µM, partner dose 2 µM)	102	144	168	257	64.7	139	81.1	89.1	114	58.7	95.4	97.5	51.5	127	111	134	100	92.9	132
CS(=O)(=O)c1ccc(C(=O)Nc2ccc(Cl)c(-c3ccccn3)c2)c(Cl)c1 [vismodegib] + Clc1ccc(Nc2nnc(Cc3ccncc3)c3ccccc23)cc1 [vatalanib] (first compound 1 µM, partner dose 2 µM)	111	101	138	201	82.4	78.1	118	131	113	88.9	105	214	58.9	128	28.7	134	103	146	174
Cn1sc(=O)n(Cc2ccccc2)c1=O + O=C(O)c1ccc2c(c1)nc(Nc1cccc(Cl)c1)c1ccncc12 [CX4945] (first compound 0.4 µM, partner dose 0.4 µM)	63.9	214	340	89.7	75.1	33.3	82.2	81.7	114	103	63.3	119	61	153	88.6	47.2	111	40.8	130
CN(c1ncccc1CNc1nc(Nc2ccc3c(c2)CC(=O)N3)ncc1C(F)(F)F)S(C)(=O)=O + O=C(O)c1ccc2c(c1)nc(Nc1cccc(Cl)c1)c1ccncc12 [CX4945] (first compound 0.08 µM, partner dose 0.4 µM)	143	377	160	149	149	30	104	92.6	113	311	126	78.2	91.9	100	179	103	87.8	56.8	253
NC(=O)c1ccc(N(C(N)=O)c2c(F)cccc2F)nc1-c1ccc(F)cc1F + Cc1cc(Nc2cc(N3CCN(C)CC3)nc(/C=C/c3ccccc3)n2)n[nH]1 [ENMD2076] (first compound 0.4 µM, partner dose 0.04 µM)	86.3	39.5	143	133	71.8	19.3	81.7	170	97.7	40.5	95.6	91.4	40.8	50.8	85.6	165	107	66.2	101
CC1(C)CCC(c2ccc(Cl)cc2)=C(CN2CCN(c3ccc(C(=O)NS(=O)(=O)c4ccc(N[C@H](CCN5CCOCC5)CSc5ccccc5)c(S(=O)(=O)C(F)(F)F)c4)cc3)CC2)C1 + CC(C)C[C@H](NC(=O)[C@H](Cc1ccccc1)NC(=O)c1cnccn1)B(O)O [Bortezomib] (first compound 0.4 µM, partner dose 0.001 µM)	8900	516	82.4	225	195	876	4800	720	19200	388	467	69.8	106	2270	161	533	719	144	89.6
Cn1cnc2c(F)c(Nc3ccc(Br)cc3Cl)c(C(=O)NOCCO)cc21 [selumetinib] + CS(=O)(=O)CCNCc1ccc(-c2ccc3ncnc(Nc4ccc(OCc5cccc(F)c5)c(Cl)c4)c3c2)o1 [lapatinib] (first compound 0.015 µM, partner dose 0.8 µM)	1130	97	96.4	438	87.1	155	95.1	53.2	112	93	189	103	78.5	215	126	66.7	229	121	128
CCCCCCCCc1ccc(CCC(N)(CO)CO)cc1 [fingolimod] + COCC[n+]1c2c(n(Cc3cnccn3)c1C)C(=O)c1ccccc1C2=O [YM155] (first compound 2 µM, partner dose 0.0004 µM)	155	123	168	963	77.6	24.5	97.2	32.5	112	36.2	55	125	81.4	78.5	45.8	135	98.8	72.7	190
Cn1cnc2c(F)c(Nc3ccc(Br)cc3Cl)c(C(=O)NOCCO)cc21 [selumetinib] + Nc1ccn([C@@H]2O[C@H](CO)[C@@H](O)C2(F)F)c(=O)n1 [gemcitabine] (first compound 0.015 µM, partner dose 0.0004 µM)	1150	111	226	308	77.6	83.7	84.2	269	172	124	159	58.7	84.9	147	254	119	149	40.1	109
CC1(C)CCC(c2ccc(Cl)cc2)=C(CN2CCN(c3ccc(C(=O)NS(=O)(=O)c4ccc(N[C@H](CCN5CCOCC5)CSc5ccccc5)c(S(=O)(=O)C(F)(F)F)c4)cc3)CC2)C1 + C[C@@H](Oc1cc(-c2cnn(C3CCNCC3)c2)cnc1N)c1c(Cl)ccc(F)c1Cl [Crizotinib] (first compound 0.4 µM, partner dose 0.2 µM)	61.6	178	68.4	339	159	414	523	777	348	299	621	61	112	223	85.5	232	244	183	158

An excerpt of these results, with bars between the fields:
SMILES | cleaved PARP positive nuclei fraction (501Mel) [%] | cleaved PARP positive nuclei fraction (A101D) [%] | cleaved PARP positive nuclei fraction (A2058) [%] | cleaved PARP positive nuclei fraction (A375) [%] | cleaved PARP positive nuclei fraction (C32) [%] | cleaved PARP positive nuclei fraction (CBRC008) [%] | cleaved PARP positive nuclei fraction (CBRC014) [%] | cleaved PARP positive nuclei fraction (CBRC016) [%] | cleaved PARP positive nuclei fraction (CBRC017) [%] | cleaved PARP positive nuclei fraction (CBRC034) [%] | cleaved PARP positive nuclei fraction (COLO792) [%] | cleaved PARP positive nuclei fraction (COLO800) [%] | cleaved PARP positive nuclei fraction (COLO829) [%] | cleaved PARP positive nuclei fraction (G361) [%] | cleaved PARP positive nuclei fraction (IPC-298) [%] | cleaved PARP positive nuclei fraction (IST-MEL1) [%] | cleaved PARP positive nuclei fraction (LB2518-MEL) [%] | cleaved PARP positive nuclei fraction (LOXIMVI) [%] | cleaved PARP positive nuclei fraction (MEL-HO) [%]
NC(=O)c1ccc(N(C(N)=O)c2c(F)cccc2F)nc1-c1ccc(F)cc1F + Cc1cc(Nc2cc(N3CCN(C)CC3)nc(/C=C/c3ccccc3)n2)n[nH]1 [ENMD2076] (first compound 0.4 µM, partner dose 0.04 µM) | 86.3 | 39.5 | 143 | 133 | 71.8 | 19.3 | 81.7 | 170 | 97.7 | 40.5 | 95.6 | 91.4 | 40.8 | 50.8 | 85.6 | 165 | 107 | 66.2 | 101
CC1(C)CCC(c2ccc(Cl)cc2)=C(CN2CCN(c3ccc(C(=O)NS(=O)(=O)c4ccc(N[C@H](CCN5CCOCC5)CSc5ccccc5)c(S(=O)(=O)C(F)(F)F)c4)cc3)CC2)C1 + C[C@@H](Oc1cc(-c2cnn(C3CCNCC3)c2)cnc1N)c1c(Cl)ccc(F)c1Cl [Crizotinib] (first compound 0.4 µM, partner dose 0.2 µM) | 61.6 | 178 | 68.4 | 339 | 159 | 414 | 523 | 777 | 348 | 299 | 621 | 61 | 112 | 223 | 85.5 | 232 | 244 | 183 | 158
